Experimental data reported in article PMC3544819.
The exact form of at least one protein or probe is not confirmed. At least one verdict rests on a figure or table, not on a statement of the authors.

Sequences of proteins named here, by UniProt entry; tags and fusion partners are left off. Residues count along the entry.
UniProt P63015, 4-269: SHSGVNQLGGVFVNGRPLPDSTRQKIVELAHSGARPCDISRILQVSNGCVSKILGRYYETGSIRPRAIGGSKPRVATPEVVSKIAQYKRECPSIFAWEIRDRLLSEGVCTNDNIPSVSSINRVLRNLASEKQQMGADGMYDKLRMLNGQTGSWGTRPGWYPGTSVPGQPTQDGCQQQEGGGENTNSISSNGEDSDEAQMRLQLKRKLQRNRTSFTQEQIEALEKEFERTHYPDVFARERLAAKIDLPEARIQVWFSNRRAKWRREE

Biological target: Pax6 PD/HD (UniProt P63015)
Experiment: EMSA
Conditions: three Snca probes stated bound, sites 1, 3 and 4 named in text; recombinant protein

Binding result, binds:
TCACCTATGCTGTTGCATAAATCACTAGTTTAT (double strand) [Snca site 4]
CTAGTGATTTATGCAACAGCATAGG (double strand) [Snca site 1]
GTTGGTTTTCTGCCTCTCAGAACTTTACCA (double strand) [Snca site 3]
